Test results reported in article PMC4718513.
No constants are given. Whether binding was seen depends on the method and setting. For part of these data: A result given as binding can be weak or reduced; the word gives no strength.

Protein sequences, listed by entry. Tags and fused reporters are not part of them. Lines headed by an entry give the natural chain unless they say otherwise; changes in a name come on top.
UniProt P54764: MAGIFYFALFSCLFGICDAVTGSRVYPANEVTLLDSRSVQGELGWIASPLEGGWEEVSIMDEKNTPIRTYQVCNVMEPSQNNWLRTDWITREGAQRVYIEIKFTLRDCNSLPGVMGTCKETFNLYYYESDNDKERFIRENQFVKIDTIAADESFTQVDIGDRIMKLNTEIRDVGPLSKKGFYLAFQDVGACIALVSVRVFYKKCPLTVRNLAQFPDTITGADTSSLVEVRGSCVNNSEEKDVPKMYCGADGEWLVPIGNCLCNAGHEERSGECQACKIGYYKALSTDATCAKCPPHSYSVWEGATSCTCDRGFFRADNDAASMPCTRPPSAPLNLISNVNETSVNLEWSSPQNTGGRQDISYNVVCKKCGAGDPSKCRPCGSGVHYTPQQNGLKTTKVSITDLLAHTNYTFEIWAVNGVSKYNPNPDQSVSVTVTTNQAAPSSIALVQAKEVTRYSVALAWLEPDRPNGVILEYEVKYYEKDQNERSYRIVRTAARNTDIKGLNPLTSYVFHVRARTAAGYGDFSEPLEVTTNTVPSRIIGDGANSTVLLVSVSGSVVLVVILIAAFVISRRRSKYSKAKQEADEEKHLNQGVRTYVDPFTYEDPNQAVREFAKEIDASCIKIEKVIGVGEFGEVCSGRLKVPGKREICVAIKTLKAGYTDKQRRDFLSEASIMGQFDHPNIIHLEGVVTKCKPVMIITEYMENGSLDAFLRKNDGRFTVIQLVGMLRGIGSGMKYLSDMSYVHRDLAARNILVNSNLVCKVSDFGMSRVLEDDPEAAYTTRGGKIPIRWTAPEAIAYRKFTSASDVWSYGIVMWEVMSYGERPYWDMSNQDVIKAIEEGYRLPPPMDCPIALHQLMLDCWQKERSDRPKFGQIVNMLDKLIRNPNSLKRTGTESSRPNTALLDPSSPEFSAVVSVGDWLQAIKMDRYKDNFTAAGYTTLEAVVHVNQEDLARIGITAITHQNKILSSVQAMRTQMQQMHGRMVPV
UniProt Q9UF33: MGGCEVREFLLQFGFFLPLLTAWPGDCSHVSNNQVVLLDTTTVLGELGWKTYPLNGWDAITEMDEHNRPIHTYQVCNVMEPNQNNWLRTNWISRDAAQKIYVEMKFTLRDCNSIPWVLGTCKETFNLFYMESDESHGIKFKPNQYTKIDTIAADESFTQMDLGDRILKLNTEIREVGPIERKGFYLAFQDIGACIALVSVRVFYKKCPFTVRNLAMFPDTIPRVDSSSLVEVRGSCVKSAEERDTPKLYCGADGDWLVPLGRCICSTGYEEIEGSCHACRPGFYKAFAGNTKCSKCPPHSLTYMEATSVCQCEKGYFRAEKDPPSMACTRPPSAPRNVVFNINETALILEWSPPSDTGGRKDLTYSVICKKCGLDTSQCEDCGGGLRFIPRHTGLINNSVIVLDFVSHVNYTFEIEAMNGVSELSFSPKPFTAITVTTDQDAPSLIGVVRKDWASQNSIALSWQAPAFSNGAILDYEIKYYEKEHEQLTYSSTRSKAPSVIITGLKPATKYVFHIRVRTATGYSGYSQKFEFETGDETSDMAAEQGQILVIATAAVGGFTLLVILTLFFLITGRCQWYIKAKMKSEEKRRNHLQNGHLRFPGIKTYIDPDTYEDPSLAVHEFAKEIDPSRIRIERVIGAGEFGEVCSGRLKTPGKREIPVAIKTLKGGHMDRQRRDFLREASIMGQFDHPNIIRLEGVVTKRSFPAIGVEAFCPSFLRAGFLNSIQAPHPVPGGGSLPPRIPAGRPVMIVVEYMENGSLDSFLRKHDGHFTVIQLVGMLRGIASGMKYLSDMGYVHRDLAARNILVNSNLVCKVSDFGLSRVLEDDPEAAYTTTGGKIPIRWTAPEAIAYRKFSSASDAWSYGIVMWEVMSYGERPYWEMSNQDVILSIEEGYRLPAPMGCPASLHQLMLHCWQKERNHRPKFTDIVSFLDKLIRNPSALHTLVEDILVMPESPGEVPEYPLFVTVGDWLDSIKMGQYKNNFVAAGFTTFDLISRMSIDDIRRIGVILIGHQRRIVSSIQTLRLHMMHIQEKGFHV
UniProt Q15375: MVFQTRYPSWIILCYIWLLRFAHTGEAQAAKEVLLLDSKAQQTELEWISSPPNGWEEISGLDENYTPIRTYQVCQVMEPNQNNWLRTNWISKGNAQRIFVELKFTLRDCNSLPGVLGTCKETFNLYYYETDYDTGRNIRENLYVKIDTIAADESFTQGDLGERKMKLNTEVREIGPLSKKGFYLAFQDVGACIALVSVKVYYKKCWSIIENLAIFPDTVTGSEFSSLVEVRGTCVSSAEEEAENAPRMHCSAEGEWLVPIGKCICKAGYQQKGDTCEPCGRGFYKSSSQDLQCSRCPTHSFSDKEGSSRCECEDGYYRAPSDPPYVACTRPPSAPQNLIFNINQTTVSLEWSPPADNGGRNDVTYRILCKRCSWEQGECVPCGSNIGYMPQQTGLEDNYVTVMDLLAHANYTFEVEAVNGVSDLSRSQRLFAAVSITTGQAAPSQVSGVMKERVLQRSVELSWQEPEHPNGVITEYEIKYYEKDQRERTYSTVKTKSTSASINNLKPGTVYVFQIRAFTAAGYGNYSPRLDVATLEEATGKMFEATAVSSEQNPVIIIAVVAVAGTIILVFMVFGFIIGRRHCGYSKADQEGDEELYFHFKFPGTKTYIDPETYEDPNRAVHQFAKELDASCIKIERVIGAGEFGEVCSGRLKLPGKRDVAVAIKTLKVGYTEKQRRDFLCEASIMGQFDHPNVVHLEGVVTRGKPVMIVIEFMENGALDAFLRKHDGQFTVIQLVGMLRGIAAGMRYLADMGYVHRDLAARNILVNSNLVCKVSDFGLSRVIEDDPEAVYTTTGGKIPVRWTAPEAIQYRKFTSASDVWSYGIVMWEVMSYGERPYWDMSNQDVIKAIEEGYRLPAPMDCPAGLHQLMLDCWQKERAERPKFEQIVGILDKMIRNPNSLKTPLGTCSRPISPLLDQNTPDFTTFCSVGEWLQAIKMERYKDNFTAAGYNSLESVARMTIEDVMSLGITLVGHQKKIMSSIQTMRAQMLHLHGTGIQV
UniProt P29322: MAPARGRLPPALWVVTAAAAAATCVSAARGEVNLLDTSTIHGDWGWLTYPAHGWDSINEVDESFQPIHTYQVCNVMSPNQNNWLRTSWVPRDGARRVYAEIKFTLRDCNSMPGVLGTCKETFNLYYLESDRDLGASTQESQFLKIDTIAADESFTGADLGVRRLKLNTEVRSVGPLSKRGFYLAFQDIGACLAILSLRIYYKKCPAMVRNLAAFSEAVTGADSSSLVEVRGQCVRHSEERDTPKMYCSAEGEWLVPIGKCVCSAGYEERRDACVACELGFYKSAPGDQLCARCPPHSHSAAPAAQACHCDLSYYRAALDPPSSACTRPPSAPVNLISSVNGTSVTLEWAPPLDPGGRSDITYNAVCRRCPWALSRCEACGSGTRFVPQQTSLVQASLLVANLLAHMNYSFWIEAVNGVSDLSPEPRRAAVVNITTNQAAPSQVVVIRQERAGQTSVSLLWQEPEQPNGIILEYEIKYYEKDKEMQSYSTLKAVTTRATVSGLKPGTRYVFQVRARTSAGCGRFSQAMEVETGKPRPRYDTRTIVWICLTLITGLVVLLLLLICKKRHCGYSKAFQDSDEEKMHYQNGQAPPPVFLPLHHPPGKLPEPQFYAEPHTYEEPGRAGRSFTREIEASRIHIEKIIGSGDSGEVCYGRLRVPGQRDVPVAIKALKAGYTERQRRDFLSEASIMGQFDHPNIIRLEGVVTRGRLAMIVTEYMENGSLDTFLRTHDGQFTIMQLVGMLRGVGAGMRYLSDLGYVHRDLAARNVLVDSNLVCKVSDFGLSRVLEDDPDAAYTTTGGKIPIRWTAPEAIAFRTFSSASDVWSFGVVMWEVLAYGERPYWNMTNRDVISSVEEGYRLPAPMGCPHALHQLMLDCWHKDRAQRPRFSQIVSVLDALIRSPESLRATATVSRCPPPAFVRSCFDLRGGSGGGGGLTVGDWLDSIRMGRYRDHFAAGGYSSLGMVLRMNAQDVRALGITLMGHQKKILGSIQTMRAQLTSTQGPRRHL

Target: T1, VAPB coiled-coil domain, CCD(152–195) (human) (UniProt O95292)
T1 sequence (chain, 15N-labelled): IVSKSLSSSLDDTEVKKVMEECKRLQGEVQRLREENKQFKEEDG
Experiment: NMR titration; 1H-15N HSQC of 15N-labelled VAPB protein (50 uM) with unlabelled NS5B or Eph protein added at different molar ratios (increment 0.5 for C-linker and Eph); 10 mM phosphate buffer pH 6.8, 25 C, 800 MHz; CSD tracings fitted with a one binding site model for residue-specific Kd; both purified

Substance | binding
C-His-tagged NS5B(1–570) (Hepatitis C virus genotype 1b strain S1) (domain or fragment) | no binding
N-His-tagged NS5B(1–570) (Hepatitis C virus genotype 1b strain S1) (domain or fragment) | no binding

Target: VAPB-MSP domain, MSP(1–125) (human) (UniProt O95292)
Experiment: as above

Substance | binding
EphA4 ligand binding domain (LBD) (from UniProt P54764) (domain or fragment) | binds weakly
EphA6 ligand binding domain (LBD) (from UniProt Q9UF33) (domain or fragment) | binds weakly
EphA7 ligand binding domain (LBD) (from UniProt Q15375) (domain or fragment) | binds weakly
EphA8 ligand binding domain (LBD) (from UniProt P29322) (domain or fragment) | binds weakly
